Measurements: PMC10163288
The list shows a part of the results.

B1: il2ra_site1_2b5i_normal_mot_HHH_b1_02271_000000068_0001_1_16_H_._HHH_b1_08003_0001_0000900024_0000001_0_af2pred_dldesign_0_af2pred (protein)
chain: SSSSSDKKAEVERLIEEAERLYKAGKRREALEKLNEAKKLADAADDEELEDKIEELAKKISSSSS
B2: il2ra_site1_3nfp_sap_14_mot_HHH_b2_03042_af2_000000210_0001_23_39_H_._5473c73378f943375813cc6914cdbd9c_0001_0001_0000500020_0000001_0_0001_af2pred_0001_af2pred (protein)
chain: SSSSSDAQRRVLELLEQLRELLKEGDEEEAEKLLEELKRLAEEINDKAVRILIERFERKLKSSSS
B3: il2ra_site2_2erj_normal_mot_39ed66e5fba071e4f274ea7f2cf018e6_0001_000000286_0001_17_31_H_._HHH_b2_07194_0002_0000700018_0000001_0 (protein)
chain: SSSSSDEEEREQVRRLLEEAERVSWEEAWELLREAFRLAARLRDEELLREIAEVFERIARSSSSS
B4: il2ra_site1_1z92_normal_mot_HHH_b1_01565_af2_000000147_0001_1_17_H_._HHH_b2_06643_af2_0001_0000300025_0000001_0_af2pred_0001_af2pred (protein)
chain: SSSSSDLERILRKAARVIARLAGLDEEEREELEEIARELAERGVDREEAIRILHEVALKLGSSSS
B5: il2ra_site1_2b5i_normal_mot_22370d59370c406a0c205a431f537cfa_0001_af2_000000141_0001_1_31_H_._HHH_b1_01338_af2_0001_0000100004_0000001_0 (protein)
chain: SSSSDRELTHFAVRVIWRLRVEFGLSAEQARELDRIAAHLVNEGVSEEEIEEILREVAEELSSSS
B6: il2ra_site2_2erj_sap_21_mot_HHH_b1_03752_000000035_0001_21_37_H_._HHH_b1_08163_0001_0000100002_0000001_0_0001 (protein)
chain: SSSSNEELHELYELAVELMRLAAEGDEEEFEHLAEELKRLAEELQSDVVREIVENLEQLISSSSS
B7: il2ra_site2_2erj_sap_18_mot_HHH_b1_00163_af2_000000268_0001_19_36_H_._HHH_b2_03331_0001_0000700032_0000001_0_0001 (protein)
chain: SSSSDEEEEAKELAEELERALEEGDEELFRRLAWELLRFAWEYNDELAQKLLTELFRKNGSSSSS
B8: il2ra_site1_2b5i_normal_mot_58506191a346798b4b085b1ef2d4ae87_0001_000000013_0001_36_50_H_._HHH_b1_04463_0001_0000300018_0000001_0_af2pred_dldesign_0_af2pred (protein)
chain: SSSSDEEKRKELEELIKRIADKLKSPGLEKFLRRALDIALAQGDDLDDIKKQLLELEKKLSSSSS
B9: il2ra_site2_2erj_sap_26_mot_3b06bd03f1c6bceadc68eab912867b79_0001_000000296_0001_36_50_H_._HHH_b2_01466_af2_0001_0000500007_0000001_0_0001 (protein)
chain: SSSSSDEEEIEELIEQAKRIEDPEERFKVLSRAFELAYKLGNIELAAEIAELALEAEEEGSSSSS
B10: il2ra_site2_3nfp_sap_12_mot_HHH_b2_02049_000000004_0001_42_55_H_._HHH_b1_02393_0001_0000200035_0000001_0_0001 (protein)
chain: SSSDETRERVEELLKEVEELIKEGNEEEAERVLLEAALVAAEGRDREAFMLVNELLARLARSSSS
B11: il2ra_site1_3nfp_normal_mot_46d73865503fbedcaf0f3a45445d594c_0001_af2_000000151_0001_1_12_H_._HEEHE_0493_0001_0000200015_0000001_0 (protein)
chain: NDERVVARLIELAAKSAGVPSVEVEVENGRLRVEFEGNDEAVRQAIEAAKRLVEQFNVEIEIEVS
B12: il2ra_site1_1z92_sap_12_mot_f199c3973e161bc1da28d4790bc84bcd_0001_1_000000051_0001_1_14_H_._HHH_b1_04987_af2_0001_0000100004_0000001_0_0001_af2pred_0001_af2pred … (protein)
chain: SEEQRELLEKILGDPELAKVVLRDFERAEENSGDPENALKAVLLVLEKSGDVSPEQLKLIEEILR
B13: il2ra_site1_2b5i_sap_10_mot_HHH_b1_05947_000000126_0001_42_56_H_._HHH_b1_07611_0001_0000300016_0000001_0_0001_af2pred_0001_af2pred (protein)
chain: SSSSDDQEITELYREASELFRNGNPEEAKKVLEEALKLAKEAGDEHIFEQLEQLRELIRGSSSSS
B14: il2ra_site2_3nfp_sap_29_mot_3824cfb560b92ee870597236e80092b0_0001_000000220_0001_16_33_H_._a446f3f13a1e079202495c9b702b595a_0001_0001_0000300013_0000001_0_0001_ … (protein)
chain: SSSSSSEEEERVRELLEEAKEIEDEREARIVLLLALAIALEAGDEELEREVEKVARELFGSSSSS
B15: il2ra_site2_3nfp_normal_mot_HHH_b1_00660_af2_000000090_0001_40_57_H_._HHH_b2_04221_0001_0000300017_0000001_0_af2pred_0001_af2pred (protein)
chain: SSSSSDEEEEEVEELLEEAKKIDDPEEREEVLKRAATVASENRDFELYALVSRVFEELASSSSSS
B16: il2ra_site2_2erj_sap_17_mot_678ce523d3521e26f84bf18760a59296_0001_000000113_0001_1_12_H_._HHH_b1_07656_af2_0001_0000100001_0000001_0_0001 (protein)
chain: SSSSSEELHRIYELANRILHAISRNNPEEVEELIEEAEELIREANNEAAEKILETLKRLFNSSSS
B17: il2ra_site1_3nfp_normal_mot_HHH_b1_06045_af2_000000189_0001_3_17_H_._HHH_b1_08576_0001_0000400025_0000001_0_af2pred_0001_af2pred_1 (protein)
chain: SSSSSDLEERVEELLKEARELYERGNPLEAARVLDEAFKIAAEADNPELTEEIYRLMQEVSSSSS
B18: il2ra_site2_3nfp_sap_14_mot_HHH_b1_03818_000000217_0001_1_20_H_._HHH_b2_00677_af2_0001_0000400015_0000001_0_0001 (protein)
chain: SSSSSDEVEELLEEVERLLREGNEEEAERVILRAAALAAEANDFEAFAKVSELRERIAGSSSSSS
B19: il2ra_site2_2erj_normal_mot_HHH_b1_03609_af2_000000077_0001_42_55_H_._HHH_b1_06056_af2_0002_0000200003_0000001_0 (protein)
chain: SSSSSEEVEELLEEARELSKRNPEEAEKVLRRASELAFRANNFELWALVAELLRAIAELEGSSSS

biological target: il2ra, P01589; test: yeast display titration

Apparent Kd, inactive:
B1 no binding seen
B2 no binding seen
B3 no binding seen
B4 no binding seen
B5 no binding seen
B6 no binding seen
B7 no binding seen
B8 no binding seen
B9 no binding seen
B10 no binding seen
B11 no binding seen
B12 no binding seen
B13 no binding seen
B14 no binding seen
B15 no binding seen
B16 no binding seen
B17 no binding seen
B18 no binding seen
B19 no binding seen

Random excerpt: 2 entries already listed, in no set order.
Apparent Kd, inactive:
B12 no binding seen
B6 no binding seen
